{
  "sequences": {"note": "Chains of the proteins cited; added tags and fusions are not shown. Residues count along the entry.", "UniProt P56704, residues 19-352": "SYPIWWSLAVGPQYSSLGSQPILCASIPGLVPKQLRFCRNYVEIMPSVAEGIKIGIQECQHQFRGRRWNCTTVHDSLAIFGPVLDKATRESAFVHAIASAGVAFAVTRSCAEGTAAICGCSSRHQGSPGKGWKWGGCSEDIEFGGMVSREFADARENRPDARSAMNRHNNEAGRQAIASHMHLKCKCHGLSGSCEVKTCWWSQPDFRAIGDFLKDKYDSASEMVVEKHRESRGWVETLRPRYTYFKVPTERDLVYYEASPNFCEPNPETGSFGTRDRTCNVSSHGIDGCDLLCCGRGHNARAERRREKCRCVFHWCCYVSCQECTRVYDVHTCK"},
  "source": "paper PMC5346747",
  "binders": {"B1": {"name": "Glypican-5 (protein, UniProt P78333 25-572)", "chain": "EGVQTCEEVRKLFQWRLLGAVRGLPDSPRAGPDLQVCISKKPTCCTRKMEERYQIAARQDMQQFLQTSSSTLKFLISRNAAAFQETLETLIKQAENYTSILFCSTYRNMALEAAASVQEFFTDVGLYLFGADVNPEEFVNRFFDSLFPLVYNHLINPGVTDSSLEYSECIRMARRDVSPFGNIPQRVMGQMGRSLLPSRTFLQALNLGIEVINTTDYLHFSKECSRALLKMQYCPHCQGLALTKPCMGYCLNVMRGCLAHMAELNPHWHAYIRSLEELSDAMHGTYDIGHVLLNFHLLVNDAVLQAHLNGQKLLEQVNRICGRPVRTPTQSPRCSFDQSKEKHGMKTTTRNSEETLANRRKEFINSLRLYRSFYGGLADQLCANELAAADGLPCWNGEDIVKSYTQRVVGNGIKAQSGNPEVKVKGIDPVINQIIDKLKHVVQLLQGRSPKPDKWELLQLGSGGGMVEQVSGDCDDEDGCGGSGSGEVKRTLKITDWMPDDMNFSDVKQIHQTDTGSTLDTTGAGCAVATESMTFTLISVVMLLPGIW"}},
  "target": "Wnt3a (human (endogenous in A549)) (UniProt P56704)",
  "assay": "co-IP; lysates of OE-GPC5 A549 cells and control cells (20 mM Tris, 2.5 mM NaCl, 1% Triton X-100, pH 7.4); anti-Wnt3a antibody overnight at 4°C, Protein-G agarose, 5 washes (50 mM Tris, 150 mM NaCl, 0.1% Triton X-100, pH 7.4); SDS-PAGE",
  "note": "Results are given in words; binding and its absence hold for the method and conditions named. Binding seen in cells or lysates may run through a third protein. Some entries that bind do so weakly or less than the wild type.",
  "data": [
    {"binder": "B1", "values": [
      {"measurement": "binding", "result": "binds"}
    ]}
  ]
}
